Counter-ions that a name gives are not always drawn. ± gives the standard deviation of the averaged measurements. Some of the results follow. This data set is noisy: repeats of one test often differ as much as different tests do.
Tested on: A549
Assay: surface PD-L1 immunofluorescence intensity relative to IFN-gamma-only control (ratio); higher = more PD-L1 expression
Settings: 10 µM; exposure time 24 h; IFN-gamma 100 ng/mL

| Structure (SMILES) | surface PD-L1 immunofluorescence intensity |
| --- | --- |
| Cc1cc(SCc2sc(-c3ccc(C(F)(F)F)c(F)c3)nc2C)ccc1OCC(=O)O | 1.01 |
| Cc1[nH]c2ccc(Cl)cc2c1C1=CCNCC1 | 0.86 |
| NC(=O)C[S+]([O-])C(c1ccccc1)c1ccccc1 (centres undefined) [Modafinil] | 0.997 |
| CC(C)(C)[C@]1(O)CC2OC(=O)CC23C(=O)OC2OC(=O)[C@H](O)C231 (some centres undefined) [Bilobalide] | 1.02 |
| O=C(O[C@H]1C[N+]2(CCCOc3ccccc3)CCC1CC2)C(O)(c1cccs1)c1cccs1 [Aclidinium Bromide] | 0.876 |
| Clc1ccccc1C(c1ccccc1)(c1ccccc1)n1cccn1 | 1.05 |
| CC(=O)NC1CCSC1=O (racemic) [N-Acetyl-DL-homocysteine Thiolactone] | 0.968 |
| CC(Cc1ccccc1)NCCC(c1ccccc1)c1ccccc1 (centres undefined) [Prenylamine lactate] | 1 |
| CN(C(=O)Cc1ccccc1)C(CN1CCCC1)c1ccccc1 (centres undefined) [N-MPPP Hydrochloride] | 0.926 |
| CN1CCN(C(=O)OC2c3nccnc3C(=O)N2c2ccc(Cl)cn2)CC1 (centres undefined) [Zopiclone] | 1.1 |
| Clc1ccc(C(OCCN2CCCCC2)c2ccccc2)cc1 (centres undefined) [Cloperastine hydrochloride] | 0.95 |
| COc1cc2c(cc1OC)C1CC(=O)C(CC(C)C)CN1CC2 (centres undefined) [Tetrabenazine] | 0.987 |
| CCNC(=O)[C@H]1O[C@@H](n2cnc3c(N)ncnc32)[C@H](O)[C@@H]1O | 0.962 |
| CCCCC/C=C\C/C=C\C/C=C\C/C=C\CCCC(=O)Nc1ccc(O)cc1 | 1.1 |
| Cc1cccc(C)c1NC1=NCCCS1 [Xylazine] | 1.06 |
| O=C(Oc1ccc([N+](=O)[O-])cc1)N1CCC(C(O)(c2ccc3c(c2)OCO3)c2ccc3c(c2)OCO3)CC1 | 1.05 |
| CCN(CC)CCO[C@H]1CC[C@@]2(C)C(=CC[C@@H]3[C@@H]2CC[C@]2(C)C(=O)CC[C@@H]32)C1 | 1 |
| CN1C(=O)COc2c(C(=O)NC3CN4CCC3CC4)cc(Cl)cc21 (centres undefined) | 1.06 |
| C[C@H](N)Cn1ccc2cc(F)c(Cl)cc21 [Ro 60-0175 fumarate] | 1.03 |
| NC(=O)CN1CCCC1=O [Piracetam] | 0.899 |
| COc1cc2c(cc1OC)C(C)NCC2 (centres undefined) | 0.938 |
| NCc1cc(O)no1 [Muscimol] | 1.02 |
| CC(C)c1c(CN(C)C(C)Cc2ccccc2)n(C)n(-c2ccccc2)c1=O (centres undefined) [Famprofazone] | 1.02 |
| C=C(C)[C@@H]1[C@H]2OC(=O)[C@@H]1[C@]1(O)C[C@H]3O[C@]34C(=O)O[C@H]2[C@]14C [Picrotoxinin] | 0.931 |
| Oc1ccc2c3c1O[C@H]1c4oc5ccccc5c4C[C@@]4(O)[C@@H](C2)N(CC2CC2)CC[C@]314 [Naltriben mesylate] | 1.03 |
| O=P1(NCCCl)OCCCN1CCCl (centres undefined) [Ifosfamide] | 1 |
| COc1ccc(C(=O)c2c(C)n(CCN3CCOCC3)c3cc(I)ccc23)cc1 | 1.06 |

A different layout for some results above.
Structure (SMILES)	surface PD-L1 immunofluorescence intensity
O=C(Oc1ccc([N+](=O)[O-])cc1)N1CCC(C(O)(c2ccc3c(c2)OCO3)c2ccc3c(c2)OCO3)CC1	1.05
CCN(CC)CCO[C@H]1CC[C@@]2(C)C(=CC[C@@H]3[C@@H]2CC[C@]2(C)C(=O)CC[C@@H]32)C1	1

Additional records:

| Structure (SMILES) | surface PD-L1 immunofluorescence intensity |
| --- | --- |
| C[C@@]12N[C@@H](Cc3ccccc31)c1ccccc12 [(-)-MK 801 maleate] | 0.971 |
| C[C@@]12N[C@@H](Cc3ccccc31)c1ccccc12 [(-)-MK 801 hydrogen maleate] | 1.02 |
| C[N+]12CCC(CC1)C(OC(=O)C(O)(c1ccccc1)c1ccccc1)C2 (centres undefined) [Clidinium bromide] | 1.01 |
| CC(=O)OCC1=C(C(=O)O)N2C(=O)[C@@H](N)[C@H]2SC1 [Cephalosporanic acid, 7-amino] | 0.985 |
| CC(=O)OCC1=C(C(=O)O)N2C(=O)[C@@H](N)[C@H]2SC1 [7-Aminocephalosporanic acid] | 0.943 |
| CO[C@]12C[C@@H](COC(=O)c3cncc(Br)c3)CN(C)[C@@H]1Cc1cn(C)c3cccc2c13 [Nicergoline] | 0.977 ± 0.067 |
| Cc1cccc([C@H](C)c2c[nH]cn2)c1C [Dexmedetomidine HCl (Precedex)] | 1.05 |
| CCCN(CCC)[C@@H]1CCc2c(OC)cccc2[C@@H]1C [(+)-UH 232 maleate] | 0.975 |
| CC(C)(C)NCC(O)c1ccccc1Cl (centres undefined) [Tulobuterol] | 1.02 |
| C[C@]12Cc3c[nH]nc3C[C@@H]1CC[C@@H]1[C@@H]2CC[C@@]2(C)[C@H]1CC[C@]2(C)O [Stanozolol] | 1.02 |
| Cc1nnc2ccc(-c3cccc(C(F)(F)F)c3)nn12 | 1.05 |
| C#C[C@]1(O)C=C[C@H]2[C@@H]3CCC4=CC(=O)CC[C@@H]4[C@H]3CC[C@@]21CC [Gestodene] | 0.981 |
| C[C@@H]1CC[C@H]2[C@@H](C)C(=O)O[C@@H]3O[C@@]4(C)CC[C@@H]1[C@]32OO4 [Artemisinin] | 0.965 ± 0.064 |
| CCC1(c2cccc(O)c2)CCCCN(C)C1 (centres undefined) [Meptazinol hydrochloride] | 0.928 |
| CCNC1(c2cccs2)CCCCC1=O (centres undefined) [Tiletamine hydrochloride] | 0.953 |
| O=C1Nc2cc(Cl)c(Cl)cc2N2CCNCC12 (centres undefined) | 1.01 |
| COc1ccc(C(=O)O[C@H]2CC[C@@]3(C)[C@@H]4CC[C@H]5[C@]6(O)C[C@H](O)[C@@]7(O)[C@@H](CN8C[C@@H](C)CC[C@H]8[C@@]7(C)O)[C@]6(O)C[C@@]53O[C@]24O)cc1OC [Veratridine] | 0.835 |
| CC(C)(C)NCC(O)COc1cccc2[nH]c(C#N)cc12 (centres undefined) [Cyanopindolol hemifumarate] | 1.06 |
| CCC(COC(=O)c1cc(OC)c(OC)c(OC)c1)(c1ccccc1)N(C)C (centres undefined) [Trimebutine] | 1.02 |
| NCCc1c[nH]c2ccc(O)cc12 [Serotonin hydrochloride] | 1.01 |
| NCCc1c[nH]c2ccc(O)cc12 [Serotonin] | 0.96 |
| CCN(C(C)=O)c1cccc(-c2ccnc3c(C#N)cnn23)c1 [Zaleplon] | 1.05 |
| CCC1(CC)C(=O)C=CNC1=O [Pyrithyldione] | 0.949 |
| CCCOc1ccc2[nH]cc(C3=CCNCC3)c2n1 | 1.02 |
| COc1ccc(Cc2nccc3cc(OC)c(OC)cc23)cc1OC [Papaverine hydrochloride] | 0.93 |
| O=C1CSC(c2ccccc2Cl)c2cc(Cl)ccc2N1 (centres undefined) | 1.01 |
| C[C@]12CC[C@H]3[C@@H](CC[C@@]45O[C@@H]4C(O)=C(C#N)C[C@]35C)[C@@H]1CC[C@@H]2O [Trilostane] | 1.03 |
